Data taken from PubChem BioAssay AID504834 (National Center for Advancing Translational Sciences (NCATS), 2011).
The whole screen tested about 320,000 compounds, of which about 22,000 (6.9%) were called active. Inconclusive results, whose numbers are uncertain, are shown with a selection of clear calls. Calls come from the whole dose curve; as a rule, active = well fitted inhibition curve with a large enough effect; inconclusive = small, poorly fitted or top-dose-only effect, or another doubt; inactive = no such curve, though single readings can be large or run the other way. Potencies of inconclusive entries are doubtful fits and often do not repeat.

Test: Primary qHTS for delayed death inhibitors of the malarial parasite plastid, 96 hour incubation
Settings: P. falciparum luciferase reporter growth; series mostly up to 28.7 µM; activity change, negative = inhibition: at the top concentration
Summary of the method: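 Luminescence readout: decreased luciferase signal marks inhibited growth of reporter-expressing P. falciparum in infected red cells (2% hematocrit, 0.05% parasitemia final), exposed to compound two generations (96 h, 37 C, 5% CO2).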
% is set by controls: 0 for no effect and ±100 for the full control effect; potency is the fitted concentration of half-maximal effect.

Row | SMILES | activity change, negative = inhibition | Potency
1 | CN(C)S(=O)(=O)c1ccc(N/C=C(\[N+](=O)[O-])S(=O)(=O)c2ccccc2)cc1 | inactive: 49.1% | 
2 | CCOc1ccc(CCNC(=O)c2cc([N+](=O)[O-])ccc2N2CCOCC2)cc1OCC |  | inconclusive: 18.5 µM [inhibitor, single point]
3 | COc1ccc(-c2csc(N3CCC(C(N)=O)CC3)n2)cc1 |  | inconclusive: 18.5 µM [inhibitor, single point]
4 | CCN(CC(=O)Nc1ccc([N+](=O)[O-])cc1OC)CC(=O)NC(C)(C)C |  | inconclusive: 18.5 µM [inhibitor, single point]
5 | CN(c1ccc(OC(=O)CN2C(=O)NC3(CCCC3)C2=O)cc1)S(=O)(=O)c1ccccc1 | inactive: 23.6% | 
6 | CCOC(=O)[C@H]1[C@H]2COc3cc(OC)ccc3[C@@H]2N2C(=O)c3cc(C)ccc3NC(=O)[C@@]12C |  | active: 2.33 µM
7 | O=C(OC[C@@H](O)CO)c1ccccc1Nc1ccnc2cc(Cl)ccc12 |  | active: 1.61 µM
8 | Cc1cccc2c1-c1sc(C(=O)NCCCN3CCCC(C)C3)cc1CO2 (centres undefined) | inactive: 11.2% | 
9 | O=C(Cc1ccc(O)cc1)NCCNC(=S)NCc1ccccc1 |  | inconclusive: 4.15 µM [inhibitor, partial curve, poor fit]
10 | COc1cccc(NC(=O)CN(C)C(C)C(=O)NC(C)c2ccc(Cl)cc2Cl)c1 (centres undefined) |  | inconclusive: 10.4 µM [inhibitor, partial curve, poor fit]
11 | CCC(C(=O)N(C(C)C)C(C)C)c1ccccc1 (centres undefined) | inactive: 35.7% | 
12 | CC(=O)N1CCN(c2nc(C)nc3sc4c(c23)CCC(C)C4)CC1 (centres undefined) |  | inconclusive: 10.4 µM [inhibitor, partial curve]
13 | CC(C)n1cnc2c(Nc3ccc(C(=O)O)cc3)nc(Cl)nc21 |  | inconclusive: 18.5 µM [inhibitor, single point]
14 | COc1c(Br)cc([N+](=O)[O-])c(OC)c1C(=O)NC(=O)Nc1cc(Cl)cc(Cl)c1 |  | inconclusive: 18.5 µM [inhibitor, single point]
15 | COc1ccccc1N/C(N)=N/c1nc(CSc2ccc(C)cc2)cc(=O)[nH]1 |  | inconclusive: 16.5 µM [inhibitor, single point]
16 | CCC(C)NC(=O)COc1ccc(Br)c(C)c1 (centres undefined) |  | inconclusive: 13.1 µM [inhibitor, single point]
17 | CC(=O)c1ccc(-c2nnc(CCC(=O)N(C)Cc3cnc4ccccn34)o2)s1 |  | inconclusive: 11.7 µM [inhibitor, partial curve, poor fit]
18 | Cn1ccc(=NC=C(C#N)C#N)c2ccccc21 | inactive: 27.4% | 
19 | O=C(COC(=O)c1cnccn1)c1ccccc1 |  | inconclusive: 0.329 µM [inhibitor, partial curve, poor fit]
20 | C=C(C)CSc1nc2sc3c(c2c(=O)n1-c1ccc(C)cc1)CCN(C)C3 |  | active: 0.928 µM
21 | COc1ccc(CNN2CCCCC2C(=O)Nc2ccc(OC)c(OCC(C)C)c2)cc1OC (centres undefined) |  | active: 14.7 µM
22 | Cc1cccc(C(=O)Nc2cccc(S(=O)(=O)NCc3ccco3)c2)c1 | inactive: -9.68% | 

Exported with tabs: entries from further up.
Row	SMILES	activity change, negative = inhibition	Potency
11	CCC(C(=O)N(C(C)C)C(C)C)c1ccccc1 (centres undefined)	inactive: 35.7%	
12	CC(=O)N1CCN(c2nc(C)nc3sc4c(c23)CCC(C)C4)CC1 (centres undefined)		inconclusive: 10.4 µM [inhibitor, partial curve]

(next part)

Row | SMILES | activity change, negative = inhibition | Potency
23 | O=C(NCCC(=O)N(Cc1ccco1)Cc1cccs1)c1ccc([N+](=O)[O-])cc1 |  | inconclusive: 16.5 µM [inhibitor, partial curve, poor fit]
24 | O=C(CCNC(=O)Cn1ccc2ccccc2c1=O)NCc1ccc(F)cc1Cl |  | inconclusive: 18.5 µM [inhibitor, single point]
25 | O=[N+]([O-])c1ccc(C23CC4CC(CC(O)(C4)C2)C3)cc1 | inactive: 82.5% | 
26 | CC(=O)Oc1ccc2occ(-c3ccccc3)c2c1 |  | inconclusive: 1.47 µM [inhibitor, partial curve, poor fit]
27 | O=[N+]([O-])c1ccc(N=Nc2ccc(O)cc2O)cc1 |  | active: 0.329 µM
28 | CCn1cc(CN2CCCC(CO)(Cc3cccc(Cl)c3)C2)cn1 (centres undefined) |  | inconclusive: 5.22 µM [inhibitor, partial curve]
29 | C=CCN1C(=O)c2ccccc2NC1c1cc(Br)cs1 (centres undefined) |  | inconclusive: 13.1 µM [inhibitor, partial curve]
30 | CC/C(=N\NC(=O)c1ccc(-c2ccccc2)cc1)C12CC3CC(CC(C3)C1)C2 |  | inconclusive: 18.5 µM [inhibitor, single point]
31 | O=C(COc1ccccc1Cl)N1CCN(c2ccccn2)CC1 |  | inconclusive: 0.738 µM [inhibitor, full curve, poor fit]
32 | Cc1cccc(NC(=O)C(C)SCc2ccccc2)c1 (centres undefined) |  | inconclusive: 4.15 µM [inhibitor, single point]
33 | CCC1=C(OC(=O)N(CC)CC)N2C(=O)OC(=NCCc3c[nH]c4ccccc34)[C@]2(Cc2ccccc2)[C@H]2C1=CC[C@H]1C(=O)N(CC)C(=O)[C@H]12 |  | active: 13.1 µM
34 | Cc1ccc(Cl)cc1N1CCN(C(=O)CNC(=O)c2ccc(Br)o2)CC1 |  | inconclusive: 18.5 µM [inhibitor, single point]
35 | Nc1ccccc1OCCOCCOc1ccccc1N |  | inconclusive: 18.5 µM [inhibitor, single point]
36 | CCc1cc(=O)oc2c3c(cc(OCC(=O)NCc4cccnc4)c12)OC(C)(C)CC3 |  | inconclusive: 13.1 µM [inhibitor, partial curve]
37 | CC(C(=O)NCc1ccc(F)cc1)c1ccc([N+](=O)[O-])cc1 (centres undefined) | inactive: 8.66% | 
39 | O=C(Nc1cccnc1)c1cc(-c2ccccc2)on1 | inactive: 1.91% | 
40 | COc1ccc(C(=O)Cn2c(Cl)nc3c2c(=O)n(C)c(=O)n3C)cc1 | inactive: 7.26% | 
41 | Cc1cc2ccccc2n2c(SCC(=O)N3CCOCC3)nnc12 |  | inconclusive: 13.1 µM [inhibitor, partial curve]
42 | O=C(NCCN1CCOCC1)c1ccccc1-c1ccccc1 | inactive: -28.4% | 
43 | CCN(Cc1ccccc1)C(=O)c1ccc(SC)cc1OC |  | inconclusive: 16.5 µM [inhibitor, single point]
44 | CCOc1ccc(NC(=O)CN(C)C(=O)c2ccc(C3SCCS3)cc2)cc1OCC |  | inconclusive: 13.1 µM [inhibitor, partial curve]
